This experiment concerns the target calf thymus DNA polymerase δ (two-subunit form) (bovine (endogenous in calf thymus)) (UniProt P28339+P49004). In words: native gel or EMSA; nondenaturing PAGE band mobility shift of 32P-labelled 30-21-mer template-primer (0.1 pmol) with 10 ng pol δ and 70 ng PCNA; without MgCl2, 3 mM EDTA in incubation and gel buffer; essentially qualitative; the complex holds DNA as well; both purified. For orientation: Mobility shift assays separate free from complexed probe on a gel.

Sequences of proteins named here, by UniProt entry; tags and fusion partners are left off. A change or cut given only in a name is not applied to a line headed by its entry.
UniProt P28339: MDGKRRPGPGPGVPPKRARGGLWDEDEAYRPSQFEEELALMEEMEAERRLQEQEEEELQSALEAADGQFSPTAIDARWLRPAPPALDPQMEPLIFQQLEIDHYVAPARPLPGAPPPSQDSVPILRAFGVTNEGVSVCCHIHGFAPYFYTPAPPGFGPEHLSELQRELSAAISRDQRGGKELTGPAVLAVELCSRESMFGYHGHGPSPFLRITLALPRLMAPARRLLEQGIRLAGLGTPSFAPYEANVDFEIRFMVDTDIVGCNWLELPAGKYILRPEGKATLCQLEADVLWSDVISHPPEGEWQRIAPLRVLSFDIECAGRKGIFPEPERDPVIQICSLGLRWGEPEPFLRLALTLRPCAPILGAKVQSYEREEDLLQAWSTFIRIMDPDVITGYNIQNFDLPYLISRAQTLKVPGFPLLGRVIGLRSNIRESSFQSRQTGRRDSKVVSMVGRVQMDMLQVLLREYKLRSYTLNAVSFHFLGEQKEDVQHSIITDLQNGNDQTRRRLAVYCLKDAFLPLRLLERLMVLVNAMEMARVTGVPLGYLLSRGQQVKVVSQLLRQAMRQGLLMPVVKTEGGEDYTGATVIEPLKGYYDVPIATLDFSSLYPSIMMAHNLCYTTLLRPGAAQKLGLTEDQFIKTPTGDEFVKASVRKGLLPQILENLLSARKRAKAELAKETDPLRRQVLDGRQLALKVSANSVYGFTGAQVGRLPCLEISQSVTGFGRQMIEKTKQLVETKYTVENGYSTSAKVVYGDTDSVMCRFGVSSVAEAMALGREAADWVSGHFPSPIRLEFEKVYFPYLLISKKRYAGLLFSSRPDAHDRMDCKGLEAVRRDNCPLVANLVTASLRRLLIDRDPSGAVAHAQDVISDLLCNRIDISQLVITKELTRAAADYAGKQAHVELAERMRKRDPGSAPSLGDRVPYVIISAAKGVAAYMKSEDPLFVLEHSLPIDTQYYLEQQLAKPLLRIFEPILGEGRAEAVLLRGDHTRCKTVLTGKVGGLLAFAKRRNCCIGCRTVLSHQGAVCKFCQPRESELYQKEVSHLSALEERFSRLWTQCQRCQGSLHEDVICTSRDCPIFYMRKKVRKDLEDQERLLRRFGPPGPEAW
UniProt P49004: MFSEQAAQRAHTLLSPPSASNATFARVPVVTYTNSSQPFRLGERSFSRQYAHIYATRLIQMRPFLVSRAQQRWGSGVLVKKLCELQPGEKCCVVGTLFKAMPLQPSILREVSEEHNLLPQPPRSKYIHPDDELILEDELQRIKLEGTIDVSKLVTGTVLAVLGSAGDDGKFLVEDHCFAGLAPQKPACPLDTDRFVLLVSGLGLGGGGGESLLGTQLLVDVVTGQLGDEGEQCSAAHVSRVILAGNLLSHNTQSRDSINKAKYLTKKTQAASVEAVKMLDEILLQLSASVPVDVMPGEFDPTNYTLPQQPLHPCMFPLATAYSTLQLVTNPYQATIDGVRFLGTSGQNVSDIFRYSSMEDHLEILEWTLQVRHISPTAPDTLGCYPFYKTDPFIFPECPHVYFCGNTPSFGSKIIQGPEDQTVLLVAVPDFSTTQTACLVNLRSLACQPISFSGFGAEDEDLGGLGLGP
UniProt P17917: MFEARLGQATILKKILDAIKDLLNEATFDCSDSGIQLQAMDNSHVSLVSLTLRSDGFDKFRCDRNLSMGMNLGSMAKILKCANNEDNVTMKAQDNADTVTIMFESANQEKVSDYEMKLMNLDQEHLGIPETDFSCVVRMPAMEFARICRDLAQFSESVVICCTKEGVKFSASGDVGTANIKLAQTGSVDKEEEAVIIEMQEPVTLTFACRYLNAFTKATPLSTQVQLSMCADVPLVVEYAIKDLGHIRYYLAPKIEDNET

These are yes or no findings as the source states them, for the method shown. Some binding calls cover weakened binding; strength is not graded here.

Take “NH2-terminally his-tagged wild-type Drosophila PCNA (from UniProt P17917 1-260)”: the binding entry was “binds weakly”.

The values are drawn from PMC515284.
